Measured values reported in publication PMC10195082.
Results are given in words; binding and its absence hold for the method and conditions named. Binding seen in cells or lysates may run through a third protein. Some binding calls cover weakened binding; strength is not graded here.

Chains of the proteins cited; added tags and fusions are not shown. Lines headed by an entry give the natural chain unless they say otherwise; changes in a name come on top. Residues count along the entry.
3xFLAG-NLS-DUX4-CTD (DUX4 aa154-424) (Q9UBX2, residues 154-424): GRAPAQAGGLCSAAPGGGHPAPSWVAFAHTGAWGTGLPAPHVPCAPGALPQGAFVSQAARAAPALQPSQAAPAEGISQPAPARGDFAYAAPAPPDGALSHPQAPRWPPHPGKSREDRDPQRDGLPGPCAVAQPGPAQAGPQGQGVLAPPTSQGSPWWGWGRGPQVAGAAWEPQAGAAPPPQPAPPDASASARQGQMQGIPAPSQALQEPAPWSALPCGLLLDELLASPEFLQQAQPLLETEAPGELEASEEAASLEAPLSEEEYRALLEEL
3xFLAG-NLS-DUX4aa154-372 (Q9UBX2, residues 154-372): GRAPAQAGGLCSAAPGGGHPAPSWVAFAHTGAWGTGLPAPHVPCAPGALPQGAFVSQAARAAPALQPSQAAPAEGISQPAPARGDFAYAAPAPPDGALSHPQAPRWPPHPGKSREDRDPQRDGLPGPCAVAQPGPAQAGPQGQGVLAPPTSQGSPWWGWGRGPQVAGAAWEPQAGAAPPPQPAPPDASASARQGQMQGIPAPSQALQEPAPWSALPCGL
UniProt O00571: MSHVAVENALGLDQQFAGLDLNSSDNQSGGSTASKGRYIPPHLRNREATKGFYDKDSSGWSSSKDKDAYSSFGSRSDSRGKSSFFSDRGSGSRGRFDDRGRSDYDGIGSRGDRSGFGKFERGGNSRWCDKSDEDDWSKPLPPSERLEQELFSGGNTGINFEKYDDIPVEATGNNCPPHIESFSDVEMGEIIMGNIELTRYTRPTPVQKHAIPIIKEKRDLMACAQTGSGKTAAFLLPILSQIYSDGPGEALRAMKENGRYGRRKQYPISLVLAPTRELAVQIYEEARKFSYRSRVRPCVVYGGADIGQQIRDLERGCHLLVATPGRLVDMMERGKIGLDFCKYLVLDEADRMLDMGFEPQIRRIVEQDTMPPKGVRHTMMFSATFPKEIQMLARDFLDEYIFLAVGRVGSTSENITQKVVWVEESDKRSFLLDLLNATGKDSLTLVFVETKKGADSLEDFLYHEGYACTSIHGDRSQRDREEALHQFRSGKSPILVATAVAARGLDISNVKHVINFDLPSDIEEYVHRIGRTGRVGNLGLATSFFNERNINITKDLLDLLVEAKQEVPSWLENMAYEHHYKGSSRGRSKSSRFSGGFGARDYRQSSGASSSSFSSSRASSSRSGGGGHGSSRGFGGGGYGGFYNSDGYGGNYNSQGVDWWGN
UniProt P42224: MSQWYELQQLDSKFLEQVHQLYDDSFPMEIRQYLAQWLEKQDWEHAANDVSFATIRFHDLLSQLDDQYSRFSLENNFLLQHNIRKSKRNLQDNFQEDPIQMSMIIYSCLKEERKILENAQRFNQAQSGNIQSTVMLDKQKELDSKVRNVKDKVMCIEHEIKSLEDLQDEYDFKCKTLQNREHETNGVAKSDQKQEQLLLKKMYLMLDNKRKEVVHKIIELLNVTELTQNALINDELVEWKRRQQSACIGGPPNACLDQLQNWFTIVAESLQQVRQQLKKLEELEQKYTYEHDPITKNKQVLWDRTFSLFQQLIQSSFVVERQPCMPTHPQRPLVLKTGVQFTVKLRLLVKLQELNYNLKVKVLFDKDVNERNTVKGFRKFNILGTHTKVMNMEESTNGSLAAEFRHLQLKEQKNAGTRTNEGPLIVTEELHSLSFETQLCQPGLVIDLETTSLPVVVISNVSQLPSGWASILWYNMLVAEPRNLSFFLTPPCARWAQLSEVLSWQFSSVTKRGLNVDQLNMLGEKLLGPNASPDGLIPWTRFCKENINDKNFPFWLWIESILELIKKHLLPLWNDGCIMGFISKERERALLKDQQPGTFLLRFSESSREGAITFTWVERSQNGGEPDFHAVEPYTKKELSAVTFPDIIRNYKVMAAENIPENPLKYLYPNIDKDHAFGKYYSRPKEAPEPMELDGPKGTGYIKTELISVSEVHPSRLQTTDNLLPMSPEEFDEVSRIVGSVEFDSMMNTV

How the values were obtained:
[1] = molecular target: 3XFLAG-NLS-DUX4CTD, constitutive, in primary human foreskin fibroblasts (human) (UniProt Q9UBX2); test: proximity ligation; fixed primary human foreskin fibroblasts with constitutive FLAG-tagged transgene, treated with IFNγ; mouse anti-FLAG [M2] with rabbit anti-STAT1; Duolink; mean fluorescent intensity of transgene-positive nuclei
[2] = molecular target: 3xFLAG-NLS-DUX4-CTD (DUX4 aa154-424) (human) (UniProt Q9UBX2); test: co-IP; anti-FLAG [M2] on Protein G Dynabeads, nuclear extract in IP buffer pH 7.4 (25 mM Tris-HCl pH 7.5, 175 mM NaCl, 1 mM EDTA, 0.2% NP-40, 5% glycerol), 3 hr at 4°C; Western blot; MB135 cells induced with doxycycline, ± IFNγ
[3] = molecular target: 3xFLAG-NLS-DUX4-CTD (DUX4 aa154-424) (human) (UniProt Q9UBX2); test: proximity ligation; fixed MB135 cells treated with doxycycline and IFNγ; mouse anti-FLAG [M2] with rabbit anti-STAT1 or rabbit anti-pSTAT1 Y701; Duolink; nuclear mean fluorescent intensity
[4] = molecular target: 3xFLAG-NLS-DUX4aa154-372 (human) (UniProt Q9UBX2); test: co-IP; anti-FLAG [M2] on Protein G Dynabeads, nuclear extract in IP buffer pH 7.4 (25 mM Tris-HCl pH 7.5, 175 mM NaCl, 1 mM EDTA, 0.2% NP-40, 5% glycerol), 3 hr at 4°C; Western blot; MB135 cells induced with doxycycline, ± IFNγ
[5] = molecular target: 3xFLAG-NLS-DUX4-CTD (DUX4 aa154-424) (human) (UniProt Q9UBX2); test: as above; remark: listed apart in the source

Row | binding [2] | Molecule | also measured
1 | binds | PABPC1 (endogenous) (from UniProt P11940 1-636) | 
2 | binds | DDX3X (endogenous) (from UniProt O00571 1-662) | 
3 | binds | PRKDC (endogenous) (from UniProt P78527 1-4128) | 
4 | binds | STAT1 (endogenous, total, MB135 cells) (from UniProt P42224 1-750) | binding [4]: binds; binding [3]: binds

More lines, now with the values behind:

Row | Molecule | binding [2] | also measured
5 | STAT1 (endogenous, total, primary human foreskin fibroblasts) (from UniProt P42224 1-750) |  | binding [1]: binds
6 | YBX1 (endogenous) (from UniProt P67809 1-324) | binds | 
7 | STAT1 phosphorylated at Y701 (endogenous, MB135 cells) (from UniProt P42224 1-750) | binds | binding [3]: binds
8 | STAT1 phosphorylated at S727 (endogenous, MB135 cells) (from UniProt P42224 1-750) | binds | 
9 | 3xMYC-STAT1 (wild type) (from UniProt P42224 1-750) | binds | 
10 | 3xMYC-STAT1-S727A (from UniProt P42224 1-750) | binds | 
11 | HNRNPM (endogenous) (protein, UniProt P52272 1-730) MAAGVEAAAEVAATEIKMEEESGAPGVPSGNGAPGPKGEGERPAQNEKRKEKNIKRGGNRFEPYANPTKRYRAFITNIPFDVKWQSLKDLVKEKVGEVTYVELLMDAEGKSRGCAVVEFKMEESMKKAAEVLNKHSLSGRPLKVKEDPDGEHARRAMQKVMATTGGMGMGPGGPGMITIPPSILNNPNIPNEIIHALQAGRLGSTVFVANLDYKVGWKKLKEVFSMAGVVVRADILEDKDGKSRGIGTVTFEQSIEAVQAISMFNGQLLFDRPMHVKMDERALPKGDFFPPERPQQLPHGLGGIGMGLGPGGQPIDANHLNKGIGMGNIGPAGMGMEGIGFGINKMGGMEGPFGGGMENMGRFGSGMNMGRINEILSNALKRGEIIAKQGGGGGGGSVPGIERMGPGIDRLGGAGMERMGAGLGHGMDRVGSEIERMGLVMDRMGSVERMGSGIERMGPLGLDHMASSIERMGQTMERIGSGVERMGAGMGFGLERMAAPIDRVGQTIERMGSGVERMGPAIERMGLSMERMVPAGMGAGLERMGPVMDRMATGLERMGANNLERMGLERMGANSLERMGLERMGANSLERMGPAMGPALGAGIERMGLAMGGGGGASFDRAIEMERGNFGGSFAGSFGGAGGHAPGVARKACQIFVRNLPFDFTWKMLKDKFNECGHVLYADIKMENGKSKGCGVVKFESPEVAERACRMMNGMKLSGREIDVRIDRNA |  | binding [5]: binds
